Reference: article doi:10.1101/2020.11.09.375865
No constants are given. Whether binding was seen depends on the method and setting. Some results given as binding are weak or reduced against the parent protein; the word gives no strength.

T1: SAS-7 (C. elegans) (UniProt G5EBL8)
T1 sequence: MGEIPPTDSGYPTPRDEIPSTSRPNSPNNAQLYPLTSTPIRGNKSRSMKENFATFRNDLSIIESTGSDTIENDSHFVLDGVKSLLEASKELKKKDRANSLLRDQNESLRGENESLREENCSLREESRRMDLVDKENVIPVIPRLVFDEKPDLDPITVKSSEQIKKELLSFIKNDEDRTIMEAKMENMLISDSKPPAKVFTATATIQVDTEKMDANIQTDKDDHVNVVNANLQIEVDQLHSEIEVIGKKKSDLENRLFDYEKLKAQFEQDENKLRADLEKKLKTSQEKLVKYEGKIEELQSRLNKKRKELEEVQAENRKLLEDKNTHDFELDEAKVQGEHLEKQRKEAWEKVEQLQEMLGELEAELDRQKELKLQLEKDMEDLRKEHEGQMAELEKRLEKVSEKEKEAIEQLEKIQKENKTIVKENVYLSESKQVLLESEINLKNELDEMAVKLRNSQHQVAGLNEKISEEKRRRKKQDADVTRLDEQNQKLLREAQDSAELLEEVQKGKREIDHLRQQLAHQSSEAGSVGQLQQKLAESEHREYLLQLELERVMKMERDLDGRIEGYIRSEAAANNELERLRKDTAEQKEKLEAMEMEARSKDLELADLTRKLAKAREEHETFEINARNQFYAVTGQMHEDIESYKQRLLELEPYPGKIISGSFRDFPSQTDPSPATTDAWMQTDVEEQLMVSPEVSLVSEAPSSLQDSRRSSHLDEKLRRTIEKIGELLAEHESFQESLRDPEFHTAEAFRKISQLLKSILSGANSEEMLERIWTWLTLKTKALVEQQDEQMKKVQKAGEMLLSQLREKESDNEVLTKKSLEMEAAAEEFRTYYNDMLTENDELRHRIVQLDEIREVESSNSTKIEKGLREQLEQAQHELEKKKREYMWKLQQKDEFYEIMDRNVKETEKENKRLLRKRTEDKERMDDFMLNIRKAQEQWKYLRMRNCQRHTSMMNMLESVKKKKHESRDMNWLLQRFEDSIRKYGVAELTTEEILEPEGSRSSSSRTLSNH

B1: SPD-2 (protein, UniProt P91870 1-824)
chain: MEDDAPMNLCNEQFEEIEDSPIDDNDNESFYNADGDVELEEEEVHETPKNFKNGGRFKTNMTNPKVNDLTTIEEKNEDLRSAASSRSASRPASVMSDKSFSSQFEFQSGGENAIEEYTNQVFADENKADLLFPETSKFMNGASPPKDKHHSWEPSIHHYDKQPPPDIQTNSPVFGNLNHRKNKLIPQARAKPGANDNEIVERDNDENVPTTSDKSAFITSPMNSTNHDEKTSTPKRPTNRKIGQYQGPNFDLSSIYVGSPQHQNTSISTGQQMPTSSYSHAHSETMMTNQTINESMVRRVLNGNNKNQDLFAALEEARKRRAAQPSKPDFRINTTRTRVPIKPTSARHSGNVVSSTSNDNTTAASSKDLTTSRKAMETFRQNASMADATNSNTASMTSILSTISTARTDISRSSRNHGGGFSNTSVSTVIPANNGNVSLSHGRDGRDSVSSVRTMSRASSTSTVYAGSTFSGVSKPLRIHAKRVAFGCVAVGETLRVEVEVENISDRQCLVRASTDSTTPVYQILDNKLTMVDPKKSIKFQVSFSPSSVGRYQVIMSIEVPAQNFIHKIPMWGNGGIAKFVPTSPDLQQTINQSEYAMCTSCAKRISFKISNSAGTRDGFAMIKVFDSAMRQLPDGCVAFFPAPGFIVKKKSDKRVDIRIDSSYIDLHDENNFRTSSSLSTASTTSSFQRRILPGAKFFVHVVWGEETMRTRLRLLEVRTGQHQLIDGHDFTSFQFSDEEVLRAVPVGFPAIKPEDRDLFAASYRSFFINFFTSTTEFRAATSRKKKEICSNDDSTLLETTAFRNQTFVNDVTIVPNTRFSNRK
B2: SAS-7 (protein, UniProt G5EBL8 1-1013)
chain: T1 sequence
B3: SPD-5 (protein, UniProt P91349 1-1198)
chain: MEDNSVLNEDSNLEHVEGQPRRSMSQPVLNVEGDKRTSSTSATQQQVLSGAFSSADVRSIPIIQTWEENKALKTKITILRGELQMYQRRYSEAKEASQKRVKEVMDDYVDLKLGQENVQEKMEQYKLMEEDLLAMQSRIETSEDNFARQMKEFEAQKHAMEERIKELELSATDANNTTVGSFRGTLDDILKKNDPDFTLTSGYEERKINDLEAKLLSEIDKVAELEDHIQQLRQELDDQSARLADSENVRAQLEAATGQGILGAAGNAMVPNSTFMIGNGRESQTRDQLNYIDDLETKLADAKKENDKARQALVEYMNKCSKLEHEIRTMVKNSTFDSSSMLLGGQTSDELKIQIGKVNGELNVLRAENRELRIRCDQLTGGDGNLSISLGQSRLMAGIATNDVDSIGQGNETGGTSMRILPRESQLDDLEESKLPLMDTSSAVRNQQQFASMWEDFESVKDSLQNNHNDTLEGSFNSSMPPPGRDATQSFLSQKSFKNSPIVMQKPKSLHLHLKSHQSEGAGEQIQNNSFSTKTASPHVSQSHIPILHDMQQILDSSAMFLEGQHDVAVNVEQMQEKMSQIREALARLFERLKSSAALFEEILERMGSSDPNADKIKKMKLAFETSINDKLNVSAILEAAEKDLHNMSLNFSILEKSIVSQAAEASRRFTIAPDAEDVASSSLLNASYSPLFKFTSNSDIVEKLQNEVSELKNELEMARTRDMRSPLNGSSGRLSDVQINTNRMFEDLEVSEATLQKAKEENSTLKSQFAELEANLHQVNSKLGEVRCELNEALARVDGEQETRVKAENALEEARQLISSLKHEENELKKTITDMGMRLNEAKKSDEFLKSELSTALEEEKKSQNLADELSEELNGWRMRTKEAENKVEHASSEKSEMLERIVHLETEMEKLSTSEIAADYCSTKMTERKKEIELAKYREDFENAAIVGLERISKEISELTKKTLKAKIIPSNISSIQLVCDELCRRLSREREQQHEYAKVMRDVNEKIEKLQLEKDALEHELKMMSSNNENVPPVGTSVSGMPTKTSNQKCAQPHYTSPTRQLLHESTMAVDAIVQKLKKTHNMSGMGPELKETIGNVINESRVLRDFLHQKLILFKGIDMSNWKNETVDQLITDLGQLHQDNLMLEEQIKKYKKELKLTKSAIPTLGVEFQDRIKTEIGKIATDMGGAVKEIRKK

Biological target: T1, SAS-7 (C. elegans)
Assay: two-hybrid

| Binder | binding |
| --- | --- |
| B1 | binds |
| B2 | no binding |
| B3 | no binding |
